The list is a part of this screen's results and no random one: it gathers tests that were run many times, whatever their T/C, doses with no T/C, and many T/C values between a quarter and a half above the control. Other doses and runs of a compound stand elsewhere. T/C is the treated group as % of the vehicle group. Some entries give survivors of the animals treated and no T/C: the source holds a T/C of zero for them, seemingly a mark for toxic or unscored doses. Some doses without a T/C left all or most animals alive at the check, yet need not have been tolerated: the source hardly ever lists a survival T/C far under the control, and the zero likely stands for such cases as well. Survivors were counted at the toxicity check, usually on the fifth day, unless a day is given; later deaths do not show. Schedule codes are those of the source, read here as Q, the interval in days (D) or hours (H), X, the number of doses. Some entries were tested several times; the values are given in rising order. Where survival is the endpoint, this PubChem deposit counts one and a half times the control or more as active, and values a quarter to a half above the control carry no call in these data; other NCI protocols may use other cut-offs. Some T/C values are followed by the survivors on the day toxicity was checked, most often the fifth; where none is given, no animal had died by that day.

The values that follow come from PubChem BioAssay AID274 (DTP/NCI, 2004).

This test has as its system BDF1 mice, Lewis lung carcinoma iv, survival T/C. In words: NCI In Vivo Anticancer Drug Screen. Data for tumor model Lewis Lung Carcinoma (intravenous) in B6D2F1 (BDF1) mice. The settings on record: T/C endpoint: median survival time, higher T/C = longer survival. As for the experimental part:
The antitumor activity of compounds was measured in mice bearing transplantable tumors. Survival or tumor size were measured and the results are expressed as the measurement made in the treated group (T) divided by the measurement made in the vehicle treated control group (C). The tumor model used in this assay is Lewis Lung Carcinoma (intravenous) in B6D2F1 (BDF1) mice

[1] abbreviates: dose: 50.0 mg/kg/injection, schedule: Q01DX009 (ip), vehicle: saline.
Where [2] appears, read: dose: 100.0 mg/kg/injection, schedule: Q01DX009 (ip), vehicle: saline.
The mark [3] stands for this setting: dose: 200.0 mg/kg/injection, schedule: Q01DX009 (ip), vehicle: Klucel (hydroxypropylcellulose) (HPC).
Setting [4] is: dose: 400.0 mg/kg/injection, schedule: Q01DX009 (ip), vehicle: Klucel (hydroxypropylcellulose) (HPC).
[5] abbreviates: dose: 200.0 mg/kg/injection, schedule: Q01DX009 (ip), vehicle: saline.
Setting [6] is: dose: 400.0 mg/kg/injection, schedule: Q01DX009 (ip), vehicle: saline.
[7] abbreviates: dose: 400.0 mg/kg/injection, schedule: Q01DX009 (ip), vehicle: saline with Tween-80.
Setting [8] is: dose: 50.0 mg/kg/injection, schedule: Q01DX009 (ip), vehicle: saline with Tween-80.
The mark [9] stands for this setting: dose: 200.0 mg/kg/injection, schedule: Q01DX009 (ip), vehicle: saline with Tween-80.
[10] abbreviates: dose: 4.0 mg/kg/injection, schedule: Q01DX009 (ip), vehicle: saline.
Setting [11] is: dose: 100.0 mg/kg/injection, schedule: Q01DX009 (ip), vehicle: Klucel (hydroxypropylcellulose) (HPC).

As for `CCOC(=O)C(N)C[S][Sn]([CH3])([CH3])[Cl]` (configuration not stated), the survivor count by setting is: under setting [1], 9 of 10; under setting [2], 0 of 10.
`CC(=O)O[C@H]1C(=O)[C@@]2(C)[C@H]([C@H](OC(=O)c3ccccc3)[C@]3(O)C[C@H](OC(=O)[C@H](O)[C@@H](NC(=O)c4ccccc4)c4ccccc4)C(C)=C1C3(C)C)[C@]1(OC(C)=O)CO[C@@H]1C[C@@H]2O`: the survivor count was 7 of 8 (dose: 72.0 mg/kg/injection, schedule: Q04DX003 (ip), vehicle: Klucel (hydroxypropylcellulose) (HPC)) and 8 of 8 (dose: 120.0 mg/kg/injection, schedule: Q04DX003 (ip), vehicle: Klucel (hydroxypropylcellulose) (HPC)).
In the case of `Cc1ccc(S(=O)(=O)NC(=O)C2C(=O)CC3(CCCCC3)CC2=O)cc1`, the survivor count under setting [3] is 6 of 10 and the survivor count under setting [4] is listed as 0 of 10.
Take `O=P1(NCCCl)OCCCN1CCCl` (configuration not stated): the T/C reads like this: (dose: 129.0 mg/kg/injection, schedule: Q01DX001 (ip), vehicle: saline) 127 % of control; (dose: 180.0 mg/kg/injection, schedule: Q01DX001 (ip), vehicle: water) 134 % of control; (dose: 646.0 mg/kg/injection, schedule: Q01DX001 (ip), vehicle: saline) 142 % of control. In addition, the survivor count is listed as 9 of 10 under setting [5]; 8 of 10 (dose: 300.0 mg/kg/injection, schedule: Q01DX001 (ip), vehicle: water); 6 of 10 under setting [6].
As for `N=C(N)c1ccc(/C=C/c2ccc(C(=N)N)cc2O)cc1`, the survivor count (dose: 100.0 mg/kg/injection, schedule: Q01DX009 (ip), vehicle: water) is recorded as 1 of 10.
For the compound `Nc1ncnc2nc[nH]c12`, the survivor count is, setting by setting: (dose: 256.0 mg/kg/injection, schedule: Q01DX009 (ip), vehicle: Klucel (hydroxypropylcellulose) (HPC)) 3 of 10; (dose: 512.0 mg/kg/injection, schedule: Q01DX009 (ip), vehicle: Klucel (hydroxypropylcellulose) (HPC)) 6 of 10.
With `CCO/C=C1\SC(=S)N(c2ccccc2C)C1=O`, under setting [7], the survivor count was 10 of 10.
Take `c1ccc2c(c1)nnn1c3cnccc3nc21`: the survivor count (dose: 25.0 mg/kg/injection, schedule: Q01DX009 (ip), vehicle: saline with Tween-80) is given as 0 of 10 and the survivor count under setting [8] is 0 of 10.
Turning to `Nc1nc(/C=C(/O)c2ccccc2)c2ncn(C3OC(CO)C(O)C3O)c2n1` (configuration not stated), the survivor count reads like this: under setting [5], 8 of 10; under setting [6], 3 of 10.
For `C/C(=N\NC(N)=O)c1cccc(/C(C)=N/NC(N)=O)n1`, the survivor count under setting [9] is on record as 0 of 10.
Turning to `CCN1C[C@]2(COC)[C@H](O)C[C@H](OC)[C@]34C1[C@H]([C@H](OC)[C@H]23)[C@]1(OC(C)=O)[C@H]2[C@@H](OC(=O)c3ccccc3)[C@](O)(C[C@H]24)[C@@H](OC)[C@@H]1O`, the T/C (dose: 0.13 mg/kg/injection, schedule: Q01DX009 (ip), vehicle: Klucel (hydroxypropylcellulose) (HPC)) was 126 % of control. For the same compound, the survivor count was 1 of 10 and 8 of 10 (dose: 0.25 mg/kg/injection, schedule: Q01DX009 (ip), vehicle: Klucel (hydroxypropylcellulose) (HPC)); 3 of 10 (dose: 0.5 mg/kg/injection, schedule: Q01DX009 (ip), vehicle: Klucel (hydroxypropylcellulose) (HPC)); 0 of 10 (dose: 1.0 mg/kg/injection, schedule: Q01DX009 (ip), vehicle: Klucel (hydroxypropylcellulose) (HPC)).
Consider `C/C=C(\C)c1cc(=O)c2c(C)cc3c(c2o1)C(=O)c1c(O)c(C2CC(C)(N(C)C)C(O)C(C)O2)cc(C2CC(N(C)C)C(O)C(C)O2)c1C3=O` (configuration not stated), for which the survivor count is given as 10 of 10 (dose: 500.0 micrograms/kg/injection, schedule: Q01DX009 (ip), vehicle: saline) and 10 of 10 (dose: 1000.0 micrograms/kg/injection, schedule: Q01DX009 (ip), vehicle: saline).
With `O=c1[nH]c(=O)n([C@H]2CCCO2)cc1F`, under setting [3], the T/C is 126 % of control. Moreover, the survivor count under setting [4] is recorded as 10 of 10.
In the case of `CCN(CC)CCOCCO`, under setting [6], the survivor count was 0 of 10.
Consider `O=P(O)(NCCCl)NCCCl`, for which the survivor count (dose: 200.0 mg/kg/injection, schedule: Q01DX001 (ip), vehicle: saline with Tween-80) was 10 of 10 and the survivor count (dose: 400.0 mg/kg/injection, schedule: Q01DX001 (ip), vehicle: saline with Tween-80) is 4 of 10.
For the compound `Nc1nc(=S)c2[nH]cnc2[nH]1`, the survivor count under setting [10] is 10 of 10.
As to `CC(CN1CC(=O)NC(=O)C1)N1CC(=O)NC(=O)C1` (configuration not stated), the T/C runs as follows: (dose: 108.0 mg/kg/injection, schedule: Q04DX003 (ip), vehicle: Klucel (hydroxypropylcellulose) (HPC)) 129 % of control; (dose: 180.0 mg/kg/injection, schedule: Q04DX003 (ip), vehicle: Klucel (hydroxypropylcellulose) (HPC)) 129, 134, 138 % of control; (dose: 300.0 mg/kg/injection, schedule: Q04DX003 (ip), vehicle: Klucel (hydroxypropylcellulose) (HPC)) 140 % of control [6 of 8 alive]. Moreover, the survivor count (dose: 500.0 mg/kg/injection, schedule: Q04DX003 (ip), vehicle: Klucel (hydroxypropylcellulose) (HPC)) is given as 8 of 8.
`N[C@H](C(=O)O)[C@@H]1CC(Cl)=NO1`: the T/C was 129 % of control (dose: 0.5 mg/kg/injection, schedule: Q01DX009 (ip), vehicle: saline); 134 % of control (dose: 1.0 mg/kg/injection, schedule: Q01DX009 (ip), vehicle: saline); 137 % of control (dose: 2.0 mg/kg/injection, schedule: Q01DX009 (ip), vehicle: saline); 147 % of control under setting [10]; 147 % of control (dose: 8.0 mg/kg/injection, schedule: Q01DX009 (ip), vehicle: saline). Also, the survivor count (dose: 16.0 mg/kg/injection, schedule: Q01DX009 (ip), vehicle: saline) is given as 10 of 10.
Take `COc1cc(NCCCCCCCNC(C)C)c2nccc(C)c2c1`: under setting [1], the survivor count is given as 6 of 10.
In the case of `CC(=O)NC(CCc1ccc(Cl)c(Cl)c1)c1cccc(O)c(=O)c1` (configuration not stated), under setting [11], the survivor count is recorded as 10 of 10.
In the case of `Nc1cc(Cl)c2[nH]cnc2n1`, the survivor count (dose: 200.0 mg/kg/injection, schedule: Q01DX009 (ip), vehicle: distilled water + Tween-80) was 10 of 10.
As for `CNc1cccnc1/C=N/NC(N)=S`, the survivor count under setting [9] is on record as 9 of 9 and the survivor count under setting [7] is reported as 6 of 10.
With `Cc1ccc[c]([Hg][Cl])c1N=Nc1ccccc1`, the survivor count (dose: 0.39 mg/kg/injection, schedule: Q01DX009 (ip), vehicle: saline with Tween-80) was 10 of 10.
For the compound `Nc1nc(SCc2ccccc2)c2ncn(C3OC(CO)CC3O)c2n1` (configuration not stated), the survivor count is listed as 10 of 10 under setting [11], 10 of 10 under setting [3] and 8 of 10 under setting [4].
Take `Cc1cc2cc3cc(C)c(N)cc3nc2cc1N`: the survivor count is, setting by setting: under setting [8], 10 of 10; (dose: 100.0 mg/kg/injection, schedule: Q01DX009 (ip), vehicle: saline with Tween-80) 1 of 10.
Take `C=C1C(=O)OCC2C(C(=O)O)=CC3C(C)C(C)=CC123` (configuration not stated): the survivor count (dose: 20.0 mg/kg/injection, schedule: Q01DX009 (ip), vehicle: Klucel (hydroxypropylcellulose) (HPC)) is on record as 10 of 10.
In the case of `[Cl][Sn]([c]1ccccc1)[c]1ccccc1`, the survivor count reads like this: (dose: 25.0 mg/kg/injection, schedule: Q01DX009 (ip), vehicle: saline) 10 of 10; under setting [1], 1 of 10; under setting [2], 0 of 10.
For `CCCCCc1cc(O)c2c(c1)OC(C)(C)[C@@H]1CCC(C)=C[C@@H]21`, the survivor count reads like this: (dose: 25.0 mg/kg/injection, schedule: Q01DX009 (ip), vehicle: other) 10 of 10; (dose: 50.0 mg/kg/injection, schedule: Q01DX009 (ip), vehicle: other) 10 of 10; (dose: 100.0 mg/kg/injection, schedule: Q01DX009 (ip), vehicle: other) 10 of 10; (dose: 400.0 mg/kg/injection, schedule: Q01DX009 (ip), vehicle: other) 10 of 10.
